# Experimental data from PubChem BioAssay AID266 (DTP/NCI, 2004).
# The list does not hold the whole screen: it is rich in T/C values a quarter to a half above the control, in often repeated tests (any T/C) and in doses without a T/C. Other doses and runs of a compound stand elsewhere. T/C gives the treated animals as a percentage of the vehicle group. Schedule codes are those of the source, taken here to give the interval after Q, in days (D) or hours (H), and the number of doses after X. Some T/C values are followed by the survivors on the day toxicity was checked, most often the fifth; where none is given, no animal had died by that day. Some entries give survivors of the animals treated and no T/C: the source holds a T/C of zero for them, seemingly a mark for toxic or unscored doses. Survivors were counted at the toxicity check, usually on the fifth day, unless a day is given; later deaths do not show.
# System: Nude mice, LX-1 lung xenograft intrarenal, tumor weight T/C
# Assay: NCI In Vivo Anticancer Drug Screen. Data for tumor model Human Lung LX-1 Xenograft (intrarenal inoculation) in NU/NU BALB/C (nude) mice
# Conditions: T/C endpoint: mean tumor weight change, higher T/C = larger tumour; for T/C: evaluated on day 11
# Description: The antitumor activity of compounds was measured in mice bearing transplantable tumors. Survival or tumor size were measured and the results are expressed as the measurement made in the treated group (T) divided by the measurement made in the vehicle treated control group (C). The tumor model used in this assay is Human Lung LX-1 Xenograft (intrarenal inoculation) in NU/NU BALB/C (nude) mice
# [1] = dose: 800.0 mg/kg/injection, schedule: Q01DX010 (sc), vehicle: saline with Tween-80
# [2] = dose: 1.0 mg/kg/injection, schedule: Q01DX010 (sc), vehicle: saline
# [3] = dose: 100.0 mg/kg/injection, schedule: Q01DX010 (sc), vehicle: Klucel (hydroxypropylcellulose) (HPC)
# [4] = dose: 200.0 mg/kg/injection, schedule: Q01DX010 (sc), vehicle: Klucel (hydroxypropylcellulose) (HPC)
# [5] = dose: 400.0 mg/kg/injection, schedule: Q01DX010 (sc), vehicle: Klucel (hydroxypropylcellulose) (HPC)
# [6] = dose: 1200.0 mg/kg/injection, schedule: Q04DX003 (sc), vehicle: Klucel (hydroxypropylcellulose) (HPC)
smiles,measurement,setting,value
Cc1ccc(S(=O)(=O)NC(=S)S)cc1,survivor count,[1],0 of 3 on day 11
O=NN(CCCl)C(=O)NCCO,survivor count,"dose: 25.0 mg/kg/injection, schedule: Q04DX003 (sc), vehicle: water",0 of 3 on day 11
CCC1CCCCN1C(=S)N/N=C(\C)c1ccccn1 (stereo not drawn),survivor count,"dose: 150.0 mg/kg/injection, schedule: Q04DX003 (sc), vehicle: saline with Tween-80",0 of 6 on day 11
CCOC(=O)N(C)N=NC,survivor count,"dose: 120.0 mg/kg/injection, schedule: Q04DX003 (ip), vehicle: saline",2 of 6 on day 11
same,survivor count,"dose: 240.0 mg/kg/injection, schedule: Q04DX003 (ip), vehicle: saline",0 of 6 on day 11
C=COC(=O)C(Cc1ccccc1)NC(=O)OCc1ccccc1 (stereo not drawn),survivor count,"dose: 2400.0 mg/kg/injection, schedule: Q04DX003 (sc), vehicle: saline with Tween-80",0 of 6 on day 11
COCC(O)Cn1ccnc1[N+](=O)[O-] (stereo not drawn),T/C,"dose: 300.0 mg/kg/injection, schedule: Q04DX003 (sc), vehicle: suspension in saline",135 % of control
same,T/C,"dose: 600.0 mg/kg/injection, schedule: Q04DX003 (sc), vehicle: suspension in saline",126 % of control
same,T/C,"dose: 1200.0 mg/kg/injection, schedule: Q04DX003 (sc), vehicle: suspension in saline",140 % of control
CCOC(=O)C(N)CSC(=O)NC (stereo not drawn),survivor count,"dose: 1200.0 mg/kg/injection, schedule: Q04DX003 (ip), vehicle: saline",2 of 6 on day 11
CCC1OC(OC)C=CC1=O (stereo not drawn),survivor count,"dose: 150.0 mg/kg/injection, schedule: Q04DX003 (sc), vehicle: saline",0 of 6 on day 11
same,survivor count,"dose: 300.0 mg/kg/injection, schedule: Q04DX003 (sc), vehicle: saline",0 of 6 on day 11
O=c1cnn(C2OC(CO)C(O)C2O)c(=O)[nH]1 (stereo not drawn),survivor count,"dose: 1600.0 mg/kg/injection, schedule: Q01DX010 (sc), vehicle: saline",0 of 3 on day 11
CC(C)CCC(=O)c1ccoc1,T/C,"dose: 1.5 mg/kg/injection, schedule: Q01DX010 (ip), vehicle: saline with Tween-80",132 % of control
same,T/C,"dose: 3.0 mg/kg/injection, schedule: Q01DX010 (ip), vehicle: saline with Tween-80",129 % of control
same,survivor count,"dose: 6.0 mg/kg/injection, schedule: Q01DX010 (ip), vehicle: saline with Tween-80",3 of 6 on day 11
same,survivor count,"dose: 12.0 mg/kg/injection, schedule: Q01DX010 (ip), vehicle: saline with Tween-80",0 of 6 on day 11
same,survivor count,"dose: 24.0 mg/kg/injection, schedule: Q01DX010 (ip), vehicle: saline with Tween-80",0 of 6 on day 11
C1CN1c1nc(N2CC2)nc(N2CC2)n1,survivor count,[2],0 of 3 on day 11
same,survivor count,"dose: 2.0 mg/kg/injection, schedule: Q01DX010 (sc), vehicle: saline",0 of 3 on day 11
N#CN=[N+]([O-])c1ccc(C(=O)O)cc1,survivor count,"dose: 90.0 mg/kg/injection, schedule: Q04DX003 (sc), vehicle: Klucel (hydroxypropylcellulose) (HPC)",0 of 6 on day 11
CN(C)N=Nc1ccc(S(N)(=O)=O)cc1,survivor count,"dose: 800.0 mg/kg/injection, schedule: Q01DX010 (sc), vehicle: Klucel (hydroxypropylcellulose) (HPC)",3 of 6 on day 11
COc1cccc2c1C(=O)c1c(O)c3c(c(O)c1C2=O)C[C@@](O)(C(=O)CO)C[C@@H]3OC1CC(OC(C)=O)C(OC(C)=O)C(C)O1 (stereo partly drawn),survivor count,"dose: 50.0 mg/kg/injection, schedule: Q01DX010 (sc), vehicle: distilled water + Tween-80",1 of 3 on day 11
same,survivor count,"dose: 100.0 mg/kg/injection, schedule: Q01DX010 (sc), vehicle: distilled water + Tween-80",0 of 3 on day 11
same,survivor count,"dose: 200.0 mg/kg/injection, schedule: Q01DX010 (sc), vehicle: distilled water + Tween-80",0 of 3 on day 11
CC(C#N)(C#N)N=Nc1ccc(Cl)cc1Cl,T/C,"dose: 300.0 mg/kg/injection, schedule: Q04DX003 (sc), vehicle: saline with Tween-80",125 % of control
C[C@]12C=CC(=O)C=C1CC[C@@H]1[C@@H]2[C@@H](O)C[C@@]2(C)[C@H]1CC[C@]2(O)C(=O)CO,survivor count,[3],0 of 3 on day 11
same,survivor count,[4],0 of 3 on day 11
same,survivor count,[5],0 of 3 on day 11
CC[C@]1(O)C[C@H]2CN(CCc3c([nH]c4ccccc34)[C@@](C(=O)OC)(c3cc4c(cc3OC)N(C=O)[C@H]3[C@@](O)(C(=O)OC)[C@H](OC(C)=O)[C@]5(CC)C=CCN6CC[C@]43[C@@H]65)C2)C1,survivor count,[2],0 of 3 on day 11
CCCC(=O)Oc1ccc(/C=N/NC(N)=S)nc1,survivor count,[1],1 of 6 on day 11
Cc1ccc(S(=O)(=O)N/N=C/C(Br)=C(/Br)C(=O)O)cc1,T/C,"dose: 2.5 mg/kg/injection, schedule: Q04DX003 (sc), vehicle: saline",129 % of control
CC[C@@]1(O)C(=O)OCc2c1cc1n(c2=O)Cc2cc3ccccc3nc2-1,survivor count,"dose: 80.0 mg/kg/injection, schedule: Q04DX003 (sc), vehicle: saline with Tween-80",1 of 6 on day 11
O=C(O)CP(=O)(O)O,survivor count,"dose: 2400.0 mg/kg/injection, schedule: Q04DX003 (sc), vehicle: saline",1 of 6 on day 11
O=C(CCBr)N1CCN(C(=O)CCBr)CC1,survivor count,[3],0 of 3 on day 11
same,survivor count,[4],0 of 3 on day 11
same,survivor count,[5],0 of 3 on day 11
Nc1nnc[se]1,survivor count,"dose: 800.0 mg/kg/injection, schedule: Q04DX003 (sc), vehicle: saline with Tween-80",1 of 6 on day 11
CCNC(C)(C)C(SSS)c1ccco1 (stereo not drawn),survivor count,[6],0 of 6 on day 11
CNc1nc(N(C)C)nc(N(C)C)n1,survivor count,"dose: 120.0 mg/kg/injection, schedule: Q01DX010 (sc), vehicle: other",0 of 3 on day 11
FC(F)(F)c1nc2nc(Cl)c(Cl)nc2[nH]1,survivor count,"dose: 600.0 mg/kg/injection, schedule: Q04DX003 (sc), vehicle: saline with Tween-80",0 of 6 on day 11
O=C(CN1CCOCC1)Nc1nc(-c2ccc(Cl)cc2)cs1,T/C,"dose: 50.0 mg/kg/injection, schedule: Q04DX003 (ip), vehicle: saline with Tween-80",135 % of control
CN1CCc2c(c3ccccc3c3ccccc23)C1,survivor count,[6],1 of 6 on day 11
CC(=O)Oc1c[nH]c(=O)[nH]c1=O,T/C,"dose: 1600.0 mg/kg/injection, schedule: Q04DX003 (sc), vehicle: distilled water + Tween-80",126 % of control [5 of 6 alive on day 11]
CSc1cc(=O)n2c3ccccc3c3ccnc1c32,survivor count,"dose: 640.0 mg/kg/injection, schedule: Q04DX003 (sc), vehicle: saline with Tween-80",3 of 5 on day 11
O=C(Nc1cc(Cl)ccc1C(=O)O)c1cccc(C[n+]2ccccc2)c1,survivor count,"dose: 600.0 mg/kg/injection, schedule: Q04DX003 (ip), vehicle: saline with Tween-80",2 of 6 on day 11
same,survivor count,"dose: 1200.0 mg/kg/injection, schedule: Q04DX003 (ip), vehicle: saline with Tween-80",0 of 6 on day 11
CCS/C(SC)=C(/c1ccccc1)[P+](c1ccccc1)(c1ccccc1)c1ccccc1,survivor count,"dose: 75.0 mg/kg/injection, schedule: Q04DX003 (sc), vehicle: Klucel (hydroxypropylcellulose) (HPC)",1 of 6 on day 11
